Values from PubChem BioAssay AID1259424 (University of Nebraska Medical Center, 2018)
Screen: 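Seek colon cancer survival genes behaving like KSR1, using a six-gene signature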 (primary screen). System: human HCT116 colon cancer cells. Knock-down reagent: siRNA pool against human genes, 50 nM. Measurement: 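Six signature mRNAs by branched-DNA multiplex assay, scaled to two housekeeping genes and non-targeting median, log2; matched to mean KSR1 knockdown profile by Pearson correlation and euclidean distance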. Scale: mean correlation with KSR1 profile and KSR1 correlation: higher = expression change more like KSR1 knockdown; mean distance from KSR1 profile: higher = expression change less like KSR1 knockdown.
Here is a random part of about 14,000 reagents tested. 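Higher correlation or smaller distance means closer resemblance to KSR1 loss; control wells, including KSR1 knockdowns, recur on many plates.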 The record does not give: the time to read-out.

gene knocked down	PubChem SID	mean correlation with KSR1 profile	mean distance from KSR1 profile	KSR1 correlation, replicate 1	KSR1 correlation, replicate 2	KSR1 correlation, replicate 3
SUSD2 (GeneID 56241)	SID364001431	-0.643	2.7	-0.688	-0.648	-0.529
LARS1 (GeneID 51520)	SID364001482	-0.0965	3.35	-0.118	0.0534	-0.0451
TCP10L3 (GeneID 6953)	SID363995579	0.0435	3.59	-0.328	-0.455	0.431
PRELID1 (GeneID 27166)	SID363998361	0.195	1.59	0.0846	0.165	-0.143
SMOX (GeneID 54498)	SID364001337	0.456	1.71	0.353	0.667	0.439
PER2 (GeneID 8864)	SID363994952	-0.52	2.37	-0.533	-0.602	-0.496
INO80B (GeneID 83444)	SID364003577	0.345	3.65	0.396	0.229	0.269
ARC (GeneID 23237)	SID363999356	-0.0725	3.89	-0.00664	-0.594	-0.077
CAB39 (GeneID 51719)	SID364000010	-0.385	3.31	-0.279	-0.611	-0.482
SEMA3B (GeneID 7869)	SID363995604	0.588	3.1	0.639	0.33	0.607
GRIA2 (GeneID 2891)	SID363992114	-0.309	2.14	-0.375	-0.151	-0.532
GUCA2B (GeneID 2981)	SID363997818	0.791	1.22	0.722	0.672	0.746
NRIP1 (GeneID 8204)	SID363994587	0.432	1.58	0.732	0.628	0.0821
GRIPAP1 (GeneID 56850)	SID364001499	-0.197	1.68	-0.235	-0.52	-0.189
CRTAC1 (GeneID 55118)	SID364000746	-0.536	3.14	-0.496	-0.575	-0.423
ZNF222 (GeneID 7673)	SID363998468	0.356	1.33	0.351	0.36	0.383
DBN1 (GeneID 1627)	SID363995379	-0.529	2.59	-0.576	-0.682	-0.306
KLRF1 (GeneID 51348)	SID364000168	0.566	1.04	0.365	0.694	0.513
DUSP14 (GeneID 11072)	SID363997757	0.294	1.74	0.265	0.165	0.351

Not a retest: entries from further up.
gene knocked down	PubChem SID	mean correlation with KSR1 profile	mean distance from KSR1 profile	KSR1 correlation, replicate 1	KSR1 correlation, replicate 2	KSR1 correlation, replicate 3
PRELID1 (GeneID 27166)	SID363998361	0.195	1.59	0.0846	0.165	-0.143
SMOX (GeneID 54498)	SID364001337	0.456	1.71	0.353	0.667	0.439
PER2 (GeneID 8864)	SID363994952	-0.52	2.37	-0.533	-0.602	-0.496
INO80B (GeneID 83444)	SID364003577	0.345	3.65	0.396	0.229	0.269

The listing continues:
gene knocked down	PubChem SID	mean correlation with KSR1 profile	mean distance from KSR1 profile	KSR1 correlation, replicate 1	KSR1 correlation, replicate 2	KSR1 correlation, replicate 3
RABL2B (GeneID 11158)	SID363997810	0.662	1.68	0.614	0.721	0.527
CTPS1 (GeneID 1503)	SID363993118	-0.335	3.57	-0.71	-0.363	0.225
CHST12 (GeneID 55501)	SID364001141	0.0273	3.62	0.14	-0.314	0.0287
SSBP3 (GeneID 23648)	SID364000757	-0.677	2.56	-0.421	-0.865	-0.554
TTC33 (GeneID 23548)	SID363998270	-0.683	2.04	-0.327	-0.635	-0.732
CBR4 (GeneID 84869)	SID364004168	0.354	2.03	0.335	-0.109	0.198
COL14A1 (GeneID 7373)	SID364005165	-0.205	2.06	-0.18	-0.41	-0.147
ARFIP2 (GeneID 23647)	SID363998287	0.0907	1.85	0.179	0.274	0.131
CENPI (GeneID 2491)	SID363997505	-0.285	2.53	-0.312	-0.445	-0.301
IGSF1 (GeneID 3547)	SID363992812	-0.525	2.02	-0.61	-0.448	-0.516
TIMM22 (GeneID 29928)	SID363998447	0.161	0.979	-0.249	-0.627	-0.0173
NONO (GeneID 4841)	SID363998005	0.797	2.08	0.774	0.814	0.688
NCF4 (GeneID 4689)	SID363991947	0.0336	2.4	0.167	0.124	-0.00534
CHGB (GeneID 1114)	SID363993035	0.484	1.41	0.6	0.398	0.377
ZC3H14 (GeneID 79882)	SID364003089	0.854	2.82	0.723	0.92	0.708
